Here are results for three molecules from article PMC10799020.

Amino acid sequences for entries named in this document (tags omitted). Residues count along the entry.
UniProt Q13705, residues 19-512: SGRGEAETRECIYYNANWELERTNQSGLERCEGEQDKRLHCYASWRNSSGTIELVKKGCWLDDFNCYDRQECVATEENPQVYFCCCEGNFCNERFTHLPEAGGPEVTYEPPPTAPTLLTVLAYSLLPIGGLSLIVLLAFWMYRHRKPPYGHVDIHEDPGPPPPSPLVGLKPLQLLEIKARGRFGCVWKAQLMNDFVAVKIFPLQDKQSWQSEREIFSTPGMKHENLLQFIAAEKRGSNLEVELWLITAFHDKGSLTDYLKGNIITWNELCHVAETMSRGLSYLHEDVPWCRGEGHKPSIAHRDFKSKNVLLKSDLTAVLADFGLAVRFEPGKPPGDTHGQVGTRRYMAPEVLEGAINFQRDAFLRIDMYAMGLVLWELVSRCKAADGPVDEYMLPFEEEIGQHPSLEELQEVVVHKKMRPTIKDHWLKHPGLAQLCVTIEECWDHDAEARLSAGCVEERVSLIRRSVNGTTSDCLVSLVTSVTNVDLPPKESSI
UniProt P35968, residues 20-1356: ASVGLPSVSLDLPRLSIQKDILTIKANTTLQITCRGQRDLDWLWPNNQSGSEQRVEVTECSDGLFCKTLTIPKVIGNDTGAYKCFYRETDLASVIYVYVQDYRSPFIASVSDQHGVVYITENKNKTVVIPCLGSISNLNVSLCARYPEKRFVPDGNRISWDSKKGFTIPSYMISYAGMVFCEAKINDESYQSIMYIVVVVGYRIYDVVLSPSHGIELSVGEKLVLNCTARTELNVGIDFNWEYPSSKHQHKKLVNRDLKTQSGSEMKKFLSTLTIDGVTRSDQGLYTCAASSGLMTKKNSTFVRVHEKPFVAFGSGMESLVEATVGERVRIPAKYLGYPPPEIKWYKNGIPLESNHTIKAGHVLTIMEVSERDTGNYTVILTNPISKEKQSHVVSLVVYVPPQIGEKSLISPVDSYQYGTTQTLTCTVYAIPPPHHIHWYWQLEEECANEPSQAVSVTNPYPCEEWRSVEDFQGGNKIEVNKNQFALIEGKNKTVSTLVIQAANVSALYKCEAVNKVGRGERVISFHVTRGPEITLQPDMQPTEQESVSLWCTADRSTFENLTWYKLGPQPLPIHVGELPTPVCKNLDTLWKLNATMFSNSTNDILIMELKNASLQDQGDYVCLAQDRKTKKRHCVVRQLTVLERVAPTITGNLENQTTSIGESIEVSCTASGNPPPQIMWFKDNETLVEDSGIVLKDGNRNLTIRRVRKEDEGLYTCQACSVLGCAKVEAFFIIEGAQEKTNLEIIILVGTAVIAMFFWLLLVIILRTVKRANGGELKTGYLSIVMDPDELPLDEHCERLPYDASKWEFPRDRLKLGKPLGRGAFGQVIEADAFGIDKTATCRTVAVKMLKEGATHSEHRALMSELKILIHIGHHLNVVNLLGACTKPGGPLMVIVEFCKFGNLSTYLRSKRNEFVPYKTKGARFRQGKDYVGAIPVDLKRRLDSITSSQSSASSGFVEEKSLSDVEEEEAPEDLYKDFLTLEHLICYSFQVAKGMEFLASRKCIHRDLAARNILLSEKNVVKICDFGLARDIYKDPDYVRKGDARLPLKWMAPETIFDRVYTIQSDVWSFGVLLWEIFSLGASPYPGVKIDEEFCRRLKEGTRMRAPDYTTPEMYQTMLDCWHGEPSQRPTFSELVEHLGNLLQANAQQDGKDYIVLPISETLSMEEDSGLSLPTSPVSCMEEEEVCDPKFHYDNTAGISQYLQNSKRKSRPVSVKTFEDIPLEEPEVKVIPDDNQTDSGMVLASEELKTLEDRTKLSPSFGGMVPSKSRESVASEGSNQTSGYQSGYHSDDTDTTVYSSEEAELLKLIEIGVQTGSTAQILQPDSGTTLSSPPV
UniProt O14786, residues 22-923: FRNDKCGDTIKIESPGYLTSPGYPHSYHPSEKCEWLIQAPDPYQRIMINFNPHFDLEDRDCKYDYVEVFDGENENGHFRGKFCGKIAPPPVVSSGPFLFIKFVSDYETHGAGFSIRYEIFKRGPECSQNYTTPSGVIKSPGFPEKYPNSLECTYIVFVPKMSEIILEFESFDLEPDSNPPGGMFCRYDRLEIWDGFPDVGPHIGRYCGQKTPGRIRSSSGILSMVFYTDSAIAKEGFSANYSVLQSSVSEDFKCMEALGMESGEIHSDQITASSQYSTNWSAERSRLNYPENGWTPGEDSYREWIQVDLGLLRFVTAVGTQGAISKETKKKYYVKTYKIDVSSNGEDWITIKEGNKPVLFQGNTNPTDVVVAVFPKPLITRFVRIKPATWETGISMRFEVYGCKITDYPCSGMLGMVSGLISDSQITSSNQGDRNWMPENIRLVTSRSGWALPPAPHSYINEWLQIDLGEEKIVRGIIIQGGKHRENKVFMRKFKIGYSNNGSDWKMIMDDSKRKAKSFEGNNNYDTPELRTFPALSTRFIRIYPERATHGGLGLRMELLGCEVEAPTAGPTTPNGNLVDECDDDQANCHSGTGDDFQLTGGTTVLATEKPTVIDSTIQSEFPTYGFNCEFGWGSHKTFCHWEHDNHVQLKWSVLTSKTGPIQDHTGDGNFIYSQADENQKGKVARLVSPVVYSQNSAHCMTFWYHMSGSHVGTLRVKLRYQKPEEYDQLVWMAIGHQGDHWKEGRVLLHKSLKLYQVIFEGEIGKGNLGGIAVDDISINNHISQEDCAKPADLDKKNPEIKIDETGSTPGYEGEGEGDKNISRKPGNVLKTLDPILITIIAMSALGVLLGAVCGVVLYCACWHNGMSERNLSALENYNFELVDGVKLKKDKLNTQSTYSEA

Assay [1] deals with T1, HA-tagged endoglin-L (ENG) (UniProt P17813).
T1 sequence: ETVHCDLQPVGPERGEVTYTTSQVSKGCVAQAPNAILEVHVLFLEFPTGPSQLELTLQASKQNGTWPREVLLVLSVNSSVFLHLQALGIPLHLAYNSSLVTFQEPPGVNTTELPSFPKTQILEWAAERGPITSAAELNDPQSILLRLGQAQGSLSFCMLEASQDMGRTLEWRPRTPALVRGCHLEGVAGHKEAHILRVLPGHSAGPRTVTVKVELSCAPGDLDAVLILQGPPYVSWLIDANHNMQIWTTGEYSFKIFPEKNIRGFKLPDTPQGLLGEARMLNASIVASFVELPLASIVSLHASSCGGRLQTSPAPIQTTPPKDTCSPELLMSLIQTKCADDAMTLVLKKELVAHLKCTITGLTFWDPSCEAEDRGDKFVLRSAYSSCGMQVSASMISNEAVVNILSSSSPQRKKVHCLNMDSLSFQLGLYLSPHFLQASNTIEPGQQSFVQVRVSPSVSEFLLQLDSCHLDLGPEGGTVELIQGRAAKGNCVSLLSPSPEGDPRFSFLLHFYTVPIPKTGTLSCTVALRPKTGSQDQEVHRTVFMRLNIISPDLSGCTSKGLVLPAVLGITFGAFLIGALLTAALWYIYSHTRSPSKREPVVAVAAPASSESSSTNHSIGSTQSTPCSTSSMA
The assay is described as follows: competition patch/FRAP; live COS7 cells coexpressing HA-ENG (immobilised by IgG) and myc-VEGFR2 (Fab'-labelled, measured) with overexpressed untagged NRP1 as competitor.

Assay [2] deals with N-terminally HA-tagged human activin receptor type 2B (ACVR2B) (human) (UniProt Q13705). The assay can be described thus: patch/FRAP (IgG-mediated immobilisation of one receptor, FRAP of the coexpressed Fab'-labelled receptor); live COS7 cells coexpressing two receptors with different extracellular tags; one crosslinked and immobilised by IgG against its tag, the other labelled only by monovalent fluorescent Fab'; labelling at 4 °C in HBSS/HEPES/BSA, FRAP at 15 °C; values without ligand; VEGF-A (50 ng/ml) enhanced the complexes, BMP9 (5 ng/ml) did not.

Assay [3] addresses T2, untagged endoglin (ENG) (UniProt P17813).
T2 sequence: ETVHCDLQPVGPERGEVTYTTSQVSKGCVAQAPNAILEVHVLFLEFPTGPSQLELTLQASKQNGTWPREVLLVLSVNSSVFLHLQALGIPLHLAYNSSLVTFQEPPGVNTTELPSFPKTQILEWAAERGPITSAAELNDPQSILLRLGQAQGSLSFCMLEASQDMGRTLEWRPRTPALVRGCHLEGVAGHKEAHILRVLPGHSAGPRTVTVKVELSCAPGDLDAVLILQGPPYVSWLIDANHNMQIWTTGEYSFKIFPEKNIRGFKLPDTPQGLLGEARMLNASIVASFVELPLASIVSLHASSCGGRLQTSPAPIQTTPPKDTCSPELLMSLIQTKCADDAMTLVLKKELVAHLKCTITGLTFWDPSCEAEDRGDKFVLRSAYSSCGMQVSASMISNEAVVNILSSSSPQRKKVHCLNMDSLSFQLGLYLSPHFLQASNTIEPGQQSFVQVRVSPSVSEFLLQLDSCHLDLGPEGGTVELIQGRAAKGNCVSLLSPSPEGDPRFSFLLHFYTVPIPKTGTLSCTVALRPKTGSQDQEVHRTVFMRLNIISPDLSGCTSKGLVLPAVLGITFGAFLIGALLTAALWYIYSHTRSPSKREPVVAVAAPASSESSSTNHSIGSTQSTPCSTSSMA
The assay is described as follows: patch/FRAP (IgG-mediated immobilisation of one receptor, FRAP of the coexpressed Fab'-labelled receptor); live COS7 cells coexpressing myc-NRP1, HA-VEGFR2 and untagged, uncrosslinked ENG as a third component; HA-VEGFR2 immobilised by IgG, Fab'-labelled myc-NRP1 measured; FRAP at 15 °C.

In assay [4] the target is N-terminally HA-tagged human VEGFR2 (human) (UniProt P35968). The description is as above.

Results are given in words; binding and its absence hold for the method and conditions named. Some results given as binding are weak or reduced against the parent protein; the word gives no strength. For some of these results: Sequences can lack the tags named with a protein.

“N-terminally myc-tagged human VEGFR2 (from UniProt P35968 20-1356) (receptor)”: the binding result in assay [1] is “binds”.

As for “myc-tagged human neuropilin 1 (NRP1) (from UniProt O14786 22-923) (receptor)”, the binding result is reported as “no binding” in assay [2] and “binds” in assay [3].

B1: untagged endoglin (ENG) (receptor, UniProt P17813 26-658)
chain: ETVHCDLQPVGPERGEVTYTTSQVSKGCVAQAPNAILEVHVLFLEFPTGPSQLELTLQASKQNGTWPREVLLVLSVNSSVFLHLQALGIPLHLAYNSSLVTFQEPPGVNTTELPSFPKTQILEWAAERGPITSAAELNDPQSILLRLGQAQGSLSFCMLEASQDMGRTLEWRPRTPALVRGCHLEGVAGHKEAHILRVLPGHSAGPRTVTVKVELSCAPGDLDAVLILQGPPYVSWLIDANHNMQIWTTGEYSFKIFPEKNIRGFKLPDTPQGLLGEARMLNASIVASFVELPLASIVSLHASSCGGRLQTSPAPIQTTPPKDTCSPELLMSLIQTKCADDAMTLVLKKELVAHLKCTITGLTFWDPSCEAEDRGDKFVLRSAYSSCGMQVSASMISNEAVVNILSSSSPQRKKVHCLNMDSLSFQLGLYLSPHFLQASNTIEPGQQSFVQVRVSPSVSEFLLQLDSCHLDLGPEGGTVELIQGRAAKGNCVSLLSPSPEGDPRFSFLLHFYTVPIPKTGTLSCTVALRPKTGSQDQEVHRTVFMRLNIISPDLSGCTSKGLVLPAVLGITFGAFLIGALLTAALWYIYSHTRSPSKREPVVAVAAPASSESSSTNHSIGSTQSTPCSTSSMA
For B1, in assay [4], the binding result is reported as “binds”.
